Holding throughout (assay): affinity purification with mass spectrometry
For one experiment, the target named is PRMT5 (UniProt O14744).
For experiment [1], the target named is Flag-DDX5 (human) (UniProt P17844).
For experiment [2] the target is unchanged. This is another data set of the same source.

Chains of the proteins cited; added tags and fusions are not shown.
UniProt O14744: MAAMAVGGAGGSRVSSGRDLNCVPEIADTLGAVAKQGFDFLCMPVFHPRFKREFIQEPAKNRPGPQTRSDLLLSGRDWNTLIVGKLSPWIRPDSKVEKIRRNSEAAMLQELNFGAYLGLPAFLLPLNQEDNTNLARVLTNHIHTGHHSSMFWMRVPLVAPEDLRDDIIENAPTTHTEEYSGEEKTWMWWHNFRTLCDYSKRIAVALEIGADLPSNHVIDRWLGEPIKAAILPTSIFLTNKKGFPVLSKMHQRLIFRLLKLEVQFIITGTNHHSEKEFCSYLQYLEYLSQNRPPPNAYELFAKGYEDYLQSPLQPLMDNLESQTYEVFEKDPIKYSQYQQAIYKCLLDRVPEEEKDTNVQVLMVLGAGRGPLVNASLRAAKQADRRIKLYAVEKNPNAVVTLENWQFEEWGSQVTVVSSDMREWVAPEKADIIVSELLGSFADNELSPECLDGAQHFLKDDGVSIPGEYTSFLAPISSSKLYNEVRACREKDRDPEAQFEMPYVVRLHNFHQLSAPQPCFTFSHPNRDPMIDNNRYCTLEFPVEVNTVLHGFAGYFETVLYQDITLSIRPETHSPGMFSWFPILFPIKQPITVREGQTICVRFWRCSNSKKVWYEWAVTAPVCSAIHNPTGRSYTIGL
UniProt P17844: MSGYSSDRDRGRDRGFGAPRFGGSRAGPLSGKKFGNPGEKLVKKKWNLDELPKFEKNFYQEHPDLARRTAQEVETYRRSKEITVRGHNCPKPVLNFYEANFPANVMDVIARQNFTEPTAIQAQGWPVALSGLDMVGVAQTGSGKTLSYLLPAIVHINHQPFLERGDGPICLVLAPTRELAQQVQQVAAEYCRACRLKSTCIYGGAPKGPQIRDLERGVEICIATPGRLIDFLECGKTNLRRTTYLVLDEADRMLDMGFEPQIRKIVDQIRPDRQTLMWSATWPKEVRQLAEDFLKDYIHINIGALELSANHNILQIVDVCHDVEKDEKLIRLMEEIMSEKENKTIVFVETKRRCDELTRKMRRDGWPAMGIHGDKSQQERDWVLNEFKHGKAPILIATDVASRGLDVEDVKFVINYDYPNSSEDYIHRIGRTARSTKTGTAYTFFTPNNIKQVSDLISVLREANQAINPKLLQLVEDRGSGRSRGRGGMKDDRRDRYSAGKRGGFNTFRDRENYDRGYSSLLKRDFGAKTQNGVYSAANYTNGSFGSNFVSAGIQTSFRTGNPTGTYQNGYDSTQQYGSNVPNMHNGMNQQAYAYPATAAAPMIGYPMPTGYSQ
UniProt Q92841: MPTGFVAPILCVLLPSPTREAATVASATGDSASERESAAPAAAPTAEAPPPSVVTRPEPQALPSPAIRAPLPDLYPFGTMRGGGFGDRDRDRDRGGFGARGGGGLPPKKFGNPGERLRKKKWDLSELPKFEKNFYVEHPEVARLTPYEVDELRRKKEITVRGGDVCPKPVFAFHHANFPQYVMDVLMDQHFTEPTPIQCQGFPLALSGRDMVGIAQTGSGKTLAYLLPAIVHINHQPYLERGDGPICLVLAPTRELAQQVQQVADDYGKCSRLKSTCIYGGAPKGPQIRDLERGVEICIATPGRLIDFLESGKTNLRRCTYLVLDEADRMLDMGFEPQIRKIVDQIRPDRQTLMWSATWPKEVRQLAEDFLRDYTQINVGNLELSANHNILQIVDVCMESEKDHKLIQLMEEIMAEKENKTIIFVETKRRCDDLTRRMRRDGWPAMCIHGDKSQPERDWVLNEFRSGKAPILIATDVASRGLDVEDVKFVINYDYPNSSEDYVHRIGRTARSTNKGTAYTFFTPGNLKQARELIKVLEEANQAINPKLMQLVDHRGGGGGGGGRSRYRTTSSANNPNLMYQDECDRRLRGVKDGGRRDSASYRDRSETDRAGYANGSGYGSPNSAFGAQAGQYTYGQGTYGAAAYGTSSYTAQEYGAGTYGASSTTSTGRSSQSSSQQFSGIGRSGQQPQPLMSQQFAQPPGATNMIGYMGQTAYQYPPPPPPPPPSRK
UniProt Q07955: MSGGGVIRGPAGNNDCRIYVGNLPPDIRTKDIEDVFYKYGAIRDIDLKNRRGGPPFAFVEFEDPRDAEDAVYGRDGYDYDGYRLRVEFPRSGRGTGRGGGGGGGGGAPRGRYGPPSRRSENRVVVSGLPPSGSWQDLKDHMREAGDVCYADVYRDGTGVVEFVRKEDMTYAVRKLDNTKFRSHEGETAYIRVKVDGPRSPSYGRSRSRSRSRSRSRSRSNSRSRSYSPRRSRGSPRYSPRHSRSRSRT

Read-outs that look alike come from different tables or passages of the source. No constants are given. Whether binding was seen depends on the method and setting. Binding seen in cells or lysates may run through a third protein. These calls come from enrichment with a bait or labelling near it, and not all partners need be listed.

Take DDX5 (from UniProt P17844 1-614): the binding entry with PRMT5 is given as “binds”. Take DDX17 (from UniProt Q92841 1-729): the binding result with Flag-DDX5 (human) [1] is “binds”. The same measure, in the same setting: the same measure for SRSF1 (from UniProt Q07955 1-248): “binds”.

B1: XRN2 (enzyme, UniProt Q9H0D6 1-950)
chain: MGVPAFFRWLSRKYPSIIVNCVEEKPKECNGVKIPVDASKPNPNDVEFDNLYLDMNGIIHPCTHPEDKPAPKNEDEMMVAIFEYIDRLFSIVRPRRLLYMAIDGVAPRAKMNQQRSRRFRASKEGMEAAVEKQRVREEILAKGGFLPPEEIKERFDSNCITPGTEFMDNLAKCLRYYIADRLNNDPGWKNLTVILSDASAPGEGEHKIMDYIRRQRAQPNHDPNTHHCLCGADADLIMLGLATHEPNFTIIREEFKPNKPKPCGLCNQFGHEVKDCEGLPREKKGKHDELADSLPCAEGEFIFLRLNVLREYLERELTMASLPFTFDVERSIDDWVFMCFFVGNDFLPHLPSLEIRENAIDRLVNIYKNVVHKTGGYLTESGYVNLQRVQMIMLAVGEVEDSIFKKRKDDEDSFRRRQKEKRKRMKRDQPAFTPSGILTPHALGSRNSPGSQVASNPRQAAYEMRMQNNSSPSISPNTSFTSDGSPSPLGGIKRKAEDSDSEPEPEDNVRLWEAGWKQRYYKNKFDVDAADEKFRRKVVQSYVEGLCWVLRYYYQGCASWKWYYPFHYAPFASDFEGIADMPSDFEKGTKPFKPLEQLMGVFPAASGNFLPPSWRKLMSDPDSSIIDFYPEDFAIDLNGKKYAWQGVALLPFVDERRLRAALEEVYPDLTPEETRRNSLGGDVLFVGKHHPLHDFILELYQTGSTEPVEVPPELCHGIQGKFSLDEEAILPDQIVCSPVPMLRDLTQNTVVSINFKDPQFAEDYIFKAVMLPGARKPAAVLKPSDWEKSSNGRQWKPQLGFNRDRRPVHLDQAAFRTLGHVMPRGSGTGIYSNAAPPPVTYQGNLYRPLLRGQAQIPKLMSNMRPQDSWRGPPPLFQQQRFDRGVGAEPLLPWNRMLQTQNAAFQPNQYQMLAGPGGYPPRRDDRGGRQGYPREGRKYPLPPPSGRYNWN
Regarding B1, the binding entry with Flag-DDX5 (human) [2] is reported as “binds”.

B2: DDX1 (protein, UniProt Q92499 1-740)
chain: MAAFSEMGVMPEIAQAVEEMDWLLPTDIQAESIPLILGGGDVLMAAETGSGKTGAFSIPVIQIVYETLKDQQEGKKGKTTIKTGASVLNKWQMNPYDRGSAFAIGSDGLCCQSREVKEWHGCRATKGLMKGKHYYEVSCHDQGLCRVGWSTMQASLDLGTDKFGFGFGGTGKKSHNKQFDNYGEEFTMHDTIGCYLDIDKGHVKFSKNGKDLGLAFEIPPHMKNQALFPACVLKNAELKFNFGEEEFKFPPKDGFVALSKAPDGYIVKSQHSGNAQVTQTKFLPNAPKALIVEPSRELAEQTLNNIKQFKKYIDNPKLRELLIIGGVAARDQLSVLENGVDIVVGTPGRLDDLVSTGKLNLSQVRFLVLDEADGLLSQGYSDFINRMHNQIPQVTSDGKRLQVIVCSATLHSFDVKKLSEKIMHFPTWVDLKGEDSVPDTVHHVVVPVNPKTDRLWERLGKSHIRTDDVHAKDNTRPGANSPEMWSEAIKILKGEYAVRAIKEHKMDQAIIFCRTKIDCDNLEQYFIQQGGGPDKKGHQFSCVCLHGDRKPHERKQNLERFKKGDVRFLICTDVAARGIDIHGVPYVINVTLPDEKQNYVHRIGRVGRAERMGLAISLVATEKEKVWYHVCSSRGKGCYNTRLKEDGGCTIWYNEMQLLSEIEEHLNCTISQVEPDIKVPVDEFDGKVTYGQKRAAGGGSYKGHVDILAPTVQELAALEKEAQTSFLHLGYLPNQLFRTF
Consider B2, for which the binding result in the experiment with Flag-DDX5 (human) [2] was “binds”.
